PubChem BioAssay AID504764 – Drosophila RNAi Screening Center, 2011
Assay: 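Genome-wide screen for regulators of Notch-driven gene expression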 (primary screen). Cell system: Drosophila Kc167 cells. Reagents: long dsRNA against Drosophila genes. Timing: about 5 days (4 days dsRNA, then 24 h after transfection). Treatment: transfection of constitutively active membrane-tethered Notch lacking the extracellular domain, read 24 h later. Detection: 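Light from a Notch-responsive E(spl)m3 luciferase reporter under active Notch, with control-promoter and no-Notch reporter wells to normalise; raw counts from paired wells a and b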. Reading the numbers: induced reporter light, run 1, well a and induced reporter light, run 1, well b: higher = more light from the Notch target reporter with active Notch; control promoter light, run 1, well a and control promoter light, run 1, well b: higher = more light from the viral control promoter (cell number, transfection, viability); uninduced reporter light, run 1, well a: higher = more light from the Notch target reporter without active Notch. Active means: 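Wells with low control signal or poorly matching duplicates excluded; duplicates averaged; per source plate, z beyond ±2 for induced/control log2 ratio or beyond ±1.8 for induced/uninduced marks a hit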. Meaning of the calls: active = modifier hit (raised or lowered Notch signal); inactive = not a hit.
In all, the deposit lists about 22,000 reagents; this is a random part of those with a known target gene and a result. Of all reagents, 403 (1.9%) are marked active. 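Unnormalised raw counts per well; ratio z-scores behind the hit calls and whether each hit raises or lowers signal are not deposited.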 Unmarked entries are inactive. The record does not give: the amount of reagent.

gene	DRSC id	induced reporter light, run 1, well a	induced reporter light, run 1, well b	control promoter light, run 1, well a	control promoter light, run 1, well b	uninduced reporter light, run 1, well a
CG14694	DRSC14917	28470	30665	30030	25295	1795
slp1 (sloppy paired 1)	DRSC00835	1.52e5	2.03e5	2.04e5	2.01e5	18250
Mnn1 (Menin 1)	DRSC03368	2.05e5	1.47e5	1.77e5	1.64e5	10125
CG5447	DRSC15801	1.58e5	1.47e5	1.70e5	2.01e5	15210
gskt (gasket)	DRSC14056	92955	90085	95895	97025	7582
Uros1 (Uroporphyrinogen III synthase 1)	DRSC18191	1.98e5	1.68e5	2.17e5	1.97e5	11442
Xpd (Xeroderma pigmentosum D)	DRSC04666	2.09e5	1.84e5	1.86e5	2.18e5	17920
Trf (TBP-related factor)	DRSC03462	1.86e5	1.95e5	1.09e5	1.31e5	27880
ras (raspberry)	DRSC18825	1.49e5	1.38e5	2.49e5	2.08e5	13560
CG3746	DRSC04412	1.59e5	1.34e5	1.22e5	1.31e5	12025
CG32582 (retired record)	DRSC19114	90540	1.01e5	94995	95270	8955
G9a	DRSC18619	1.03e5	1.12e5	1.74e5	1.99e5	7190
CG5800	DRSC19962	88340	75780	1.04e5	73105	10095
CG10137	DRSC02014	60510	59470	42045	47720	4250
CG10137	DRSC02015	24885	23285	23050	20050	1805
CG16719	DRSC10222	1.10e5	1.40e5	84135	40680	10110
CG3355	DRSC00598	1.33e5	1.10e5	1.33e5	98435	5840
CG14086	DRSC10090	1.33e5	1.27e5	1.37e5	1.07e5	8265
CG17329	DRSC01926	1.14e5 (active)	1.01e5	1.76e5	1.86e5	10765
Rdh1 (Retinol dehydrogenase 1)	DRSC06812	2.18e5	1.92e5	2.35e5	1.97e5	19850

2 entries from above, ordered by “uninduced reporter light, run 1, well a”, low to high.
gene	DRSC id	induced reporter light, run 1, well a	induced reporter light, run 1, well b	control promoter light, run 1, well a	control promoter light, run 1, well b	uninduced reporter light, run 1, well a
ras (raspberry)	DRSC18825	1.49e5	1.38e5	2.49e5	2.08e5	13560
Trf (TBP-related factor)	DRSC03462	1.86e5	1.95e5	1.09e5	1.31e5	27880
